Source: PubChem BioAssay AID2685 (National Center for Advancing Translational Sciences (NCATS), 2010)
Some of the results follow. These are further read-outs of the screen, such as a control signal, another cell line or another target. No call is given for them. Compounds called inactive in the main read-out are mostly missing here. Words in brackets tell the shape of the fitted curve; partial curves, single points and poor fits give uncertain potencies.

Assay: qHTS Assay for Lipid Storage Modulators in Drosophila S3 Cells;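 on cell number change: cells counted by Cell Tracker Red CMTPX staining in the red channel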
Conditions: BODIPY lipid droplet fluorescence, 18-24 h; for cell number change: measured here: cell count max response, cells fed with added oleic acid
Outline: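 Drosophila S3 cells got compounds at several concentrations plus oleic acid (400 uM solution). Laser-scanning cytometry with 488 nm excitation read lipid droplets at 500-530 nm and cells at 575-640 nm. Percent activity was relative to 20 uM Triacsin C.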

[1] = measured here: cell number channel AC50, cells fed with added oleic acid
[2] = measured here: lipid fluorescence (Fed channel) AC50, cells fed with added oleic acid

SMILES	cell number change	AC50 [1]	AC50 [2]
COCCNC(=O)CCc1nc(-c2ccccc2)no1	-16.4%	6.51 µM [falling, single point]	14.6 µM [falling, partial curve]
CC(C)Oc1ccccc1NC(=O)CSc1nc2ccccc2c(=O)n1C	15.1%		20.6 µM [falling, single point]
CCOC(=O)N(C)c1ccc(C(O)(C(F)(F)F)C(F)(F)F)cc1		4.61 µM [rising, single point]	
O=C(CSc1ccc([N+](=O)[O-])cn1)Nc1cc(C(F)(F)F)ccc1N1CCOCC1	-23.2%		0.00461 µM [rising, full curve, poor fit]
O=C(COC(=O)C1CC1)NC(=O)c1ccccc1	18.4%	0.092 µM [falling, full curve, poor fit]	2.31 µM [rising, partial curve]
CCCNC(=O)C(=O)NCCC1=CCCCC1	-14.6%	0.00461 µM [falling, full curve, poor fit]	0.00461 µM [falling, full curve]
Cc1ccccc1NC(=O)CSc1nnc(Cc2ccccc2)c(=O)n1N		2.06 µM [rising, partial curve]	
COc1ccccc1N1C(=O)Cc2ccccc2C1=O	-8.11%		0.58 µM [rising, single point]
CCOC(=O)N1CCN(C(=O)c2c[nH]c3ccc(S(=O)(=O)N(C)c4ccc(F)cc4)cc3c2=O)CC1			18.4 µM [rising, single point]
COc1cc2c(cc1OC)C1(NCC2)C(=O)Nc2ccccc21 (stereo unspecified)	-18.8%		
CCN(CC)S(=O)(=O)c1cccc(C(=O)OC2CCOC2=O)c1 (stereo unspecified)	-17.6%		
CCN(CC)CCNS(=O)(=O)c1ccc(Cl)cc1	7.71%	0.00517 µM [falling, full curve, poor fit]	
CCOC(=O)CCN(c1ccccc1)S(=O)(=O)c1ccc(-c2ccc(=O)[nH]n2)s1	-12.5%		
CC(NC(=O)CN(c1ccccc1F)S(C)(=O)=O)c1ccccc1 (stereo unspecified)	-17.3%		18.4 µM [falling, partial curve]
CC1CCCCN1C(=O)c1cc2nc(-c3ccccc3)cc(-c3ccccc3)n2n1 (stereo unspecified)	-17%		29.1 µM [falling, single point]
CCOc1cc(/C=C(\C#N)C(=O)NCC2CCCO2)ccc1O (stereo unspecified)	-27.8%		18.4 µM [falling, partial curve]
O=C1CSC(c2cccnc2)N1C1CCCCC1 (stereo unspecified)	-2.67%		32.6 µM [falling, partial curve, poor fit]
CCOC(=O)/C=C/C(=O)Nc1ccc(S(=O)(=O)Nc2c(C)cc(C)cc2C)cc1	11.8%		0.731 µM [rising, full curve, poor fit]
COc1ccc(Br)cc1CNC(=O)C1CCN(c2nnc(N3CCCC3=O)s2)CC1	16.5%		29.1 µM [rising, single point]
CCN(CC)C(=O)C1CCCN(C(=O)Nc2ccccc2)C1 (stereo unspecified)	11.7%		3.26 µM [rising, single point]

SMILES	cell number change	AC50 [1]	AC50 [2]
Cc1cc2c(s1)CCCCC(=O)N2			6.51 µM [falling, single point]
Cc1cc(NS(=O)(=O)c2ccc(NC(=O)c3cc4ccccc4o3)cc2)no1		3.66 µM [rising, partial curve]	
Cc1cc(C)c(C)c(OCC(=O)NCC2CCCO2)c1 (stereo unspecified)	82.3%	9.2 µM [rising, partial curve]	6.51 µM [rising, single point]
CCn1c(SCC(=O)c2ccc3c(c2)OCCO3)nnc1C(C)C	0.495%	6.51 µM [rising, single point]	9.2 µM [rising, partial curve]
O=C(/C=C/c1ccc(F)cc1)c1ccccc1Br	-45%	9.2 µM [falling, partial curve]	11.6 µM [falling, partial curve]
CCC(=O)Nc1nc(C)c(-c2csc(Nc3ccc(C(=O)O)cc3)n2)s1	-25%		
COc1ccc(NC(=O)CN2C(=O)/C(=C3\SC(=S)N(CCC(=O)O)C3=O)c3ccccc32)cc1	11.4%		
COCc1cc(C)nc(SCC(=O)Nc2ccc3c(c2)OCO3)c1C#N		2.59 µM [rising, partial curve]	6.51 µM [rising, partial curve]
O=C1OC(/C=C/c2ccc(Cl)cc2Cl)=NC/1=C\c1cccs1	31.9%	0.103 µM [rising, full curve, poor fit]	0.146 µM [falling, full curve, poor fit]
COCCn1c(N)c(N(Cc2ccccc2)C(=O)c2ccc(-c3ccc(Cl)cc3)o2)c(=O)[nH]c1=O			0.461 µM [falling, single point]
CN(Cc1ccco1)C(=O)CCc1nc2sc3c(c2c(=O)[nH]1)CCCC3	-14.6%		18.4 µM [falling, single point]
Cc1ccc2nc(SCC(=O)O)nc(C)c2c1	-20.8%		0.82 µM [falling, full curve]
Cn1cc(C(=O)N/N=C/c2ccc(Br)c([N+](=O)[O-])c2)c2ccccc21	56.5%	7.31 µM [rising, partial curve]	6.51 µM [rising, full curve]
CCOC(=O)c1c(C)[nH]c(C(=O)CSc2nc(C)cc(C)n2)c1C	41.1%	0.651 µM [rising, full curve]	1.03 µM [rising, full curve]
COc1ccc(Br)cc1CNC(=O)C1CCCN(S(C)(=O)=O)C1 (stereo unspecified)	75.5%	18.4 µM [rising, single point]	
Cc1nc(SCC(=O)NCC2CCCO2)c2c3c(sc2n1)CCCC3 (stereo unspecified)	19%		
CCN1C(=O)C(O)(CC(=O)c2ccc(-n3cccc3)cc2)c2ccccc21 (stereo unspecified)			5.8 µM [falling, full curve, poor fit]
CCOc1ccc(N2C(=O)C3ON(C)C(c4ccc([N+](=O)[O-])cc4)C3C2=O)cc1 (stereo unspecified)	-20.5%		29.1 µM [falling, single point]
O=C(Nc1nnc(C2CC2)s1)C1CCCO1 (stereo unspecified)	10.3%	6.51 µM [falling, single point]	
O=C(CN1CCc2ccccc21)NCc1ccc2c(c1)OCO2	12.5%		29.1 µM [rising, single point]

Random excerpt: 2 compounds from above, in no set order.
SMILES	cell number change	AC50 [1]	AC50 [2]
O=C(Nc1nnc(C2CC2)s1)C1CCCO1 (stereo unspecified)	10.3%	6.51 µM [falling, single point]	
COCCn1c(N)c(N(Cc2ccccc2)C(=O)c2ccc(-c3ccc(Cl)cc3)o2)c(=O)[nH]c1=O			0.461 µM [falling, single point]

Next records follow:

SMILES	cell number change	AC50 [1]	AC50 [2]
Cc1cc(C)n2nc(C(=O)NC3CCCc4ccccc43)nc2n1 (stereo unspecified)	-9.48%		6.51 µM [falling, single point]
CN(C)CCCNc1cc(C(C)(C)C)nc2c(-c3ccc(Cl)cc3)cnn12	-65.5%	20.6 µM [falling, single point]	29.1 µM [falling, single point]
CC(C)(C=O)C1=CC(=O)c2ccccc2C1=O	-49.1%	2.91 µM [falling, full curve]	4.61 µM [falling, full curve]
Cc1cc(C)nc(NNS(=O)(=O)c2c(C)cc(C(C)(C)C)cc2C)n1	89.7%	25.9 µM [rising, single point]	0.00651 µM [falling, full curve, poor fit]
Cc1cccc(NC(=O)C2c3ccccc3Oc3ccccc32)n1	12.1%		0.82 µM [rising, full curve, poor fit]
CCOC(=O)C(C)n1cnc2c(nnn2-c2ccc(F)cc2)c1=O (stereo unspecified)	-1.73%		
CC(OC(=O)CCCCCN=C1NS(=O)(=O)c2ccccc21)C(=O)Nc1cc(Cl)cc(Cl)c1 (stereo unspecified)	7.57%		32.6 µM [falling, single point]
COc1ccc(CCNc2nc(N3CCCCC3)nc(N3CCCCC3)n2)cc1OC	-34.8%	29.1 µM [falling, single point]	
CCCCN1C(=O)C(=O)N(CC(=O)Nc2cccc(C(C)=O)c2)C1=O	-10.7%		0.13 µM [falling, partial curve, poor fit]
Cc1sc2ncnc(NCC(c3ccco3)N(C)C)c2c1C (stereo unspecified)		3.66 µM [falling, partial curve]	
C(=N\n1cnnc1)/c1ccc(-c2ccccc2)cc1	15.2%		7.31 µM [rising, partial curve]
CC1(C)O[C@@H]2[C@H](O1)[C@@H](CO)O[C@H]2n1cnc2c(N)ncnc21	6.26%		0.146 µM [rising, full curve, poor fit]
COC(=O)Cc1ccc(O)c(N)c1	-9.54%		16.4 µM [falling, partial curve, poor fit]
COc1cc(NC(=O)c2cccc3c2C(=O)N(C2CCCCC2)C3)cc(OC)c1OC	-4.42%		0.58 µM [rising, single point]
COC(=O)c1onc(C(=O)c2ccccc2)c1C(=O)OC	2.01%		0.092 µM [falling, full curve]
Cc1ccc(C(C)C)c(OCC(=O)N2CCN(c3ncccn3)CC2)c1	-10%		2.91 µM [rising, single point]
O=C(/C=C/c1ccccc1)NNC1=NS(=O)(=O)c2ccccc21	14.2%		18.4 µM [rising, partial curve]
Cc1ccc2oc3nc(C)c(C(=O)O)cc3c(=O)c2c1	-9.68%		1.64 µM [falling, partial curve]
Nn1c(SCC(=O)NC2CCCc3ccccc32)nnc1-c1cccs1 (stereo unspecified)	0.129%		0.731 µM [rising, single point]
CC(=O)c1ccc(N2CCN(C(=O)Cc3cccs3)CC2)cc1	-15.3%		
